Laboratory results taken from article PMC7819943, “Rice protein-binding microarrays: a tool to detect cis-acting elements near promoter regions in rice”.
This is one part of the list.

Amino acid sequences for entries named in this document (tags omitted).
UniProt Q0JBA9, entry or part of it: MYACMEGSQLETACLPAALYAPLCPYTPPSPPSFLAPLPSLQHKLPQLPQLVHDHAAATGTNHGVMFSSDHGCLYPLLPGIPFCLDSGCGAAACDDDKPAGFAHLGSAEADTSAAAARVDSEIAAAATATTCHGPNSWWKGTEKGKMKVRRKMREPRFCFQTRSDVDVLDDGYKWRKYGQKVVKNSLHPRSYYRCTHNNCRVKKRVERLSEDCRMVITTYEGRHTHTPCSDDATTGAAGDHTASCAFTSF

target: OsWRKY34 (Oryza sativa, UniProt Q0JBA9 1-250); assay: protein-binding microarray (RPBM); PBS, 2% BSA, 51.3 ng/ul salmon testes DNA, 50 uM zinc acetate, 200 nM TF, 25 C, 1 h; high values mean tight binding; conditions: protein: recombinant; tags: N-terminal polyhistidine and DsRed monomer fusion (pET32a); label: CyDye5-dUTP incorporated in the synthesized complementary strand; 3' TTTTT single-stranded linker to array surface; dsDNA, one strand shown
In short: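 For the binding signal, per-feature fluorescence intensity was read in arbitrary units on an Axon 4000B scanner. Before scanning, a 2% BSA-blocked custom Agilent array made double-stranded with Cy5-dUTP was washed after 1 h at 25 °C with 200 nM protein and 50 µM zinc acetate. The proteins were Ni–NTA-purified transcription factors with N-terminal polyhistidine and DsRed fusions, expressed in E. coli BL21-CodonPlus.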

Sequence | binding signal
ACTTTATCCTCTCCCACGTCGCCAGCGTTCCCTTGTTGCTCGGAGTCACCTAGTGCAG | 11000 fluorescence intensity (a.u.)
CCGACTGCTCAATCACCACCGGTCTGACCGGCTACCAGAGCGGAGTCACCTAGTGCAG | 17200 fluorescence intensity (a.u.)
GTGAAAATATGTCCATTTCACCAACCTTTTGTCCCAAATCCGGAGTCACCTAGTGCAG | 9320 fluorescence intensity (a.u.)
ATTCTGCAACATTGACTAGACTCTTCTATATTGTTAATCTCGGAGTCACCTAGTGCAG | 8290 fluorescence intensity (a.u.)
TTGAGCTAGTACTAACATTTTTGTGTCGCGTTGGTTTAGTCGGAGTCACCTAGTGCAG | 10900 fluorescence intensity (a.u.)
GTCACATTATATACGTATTTCTTCTCTTGGTACCATTTGACGGAGTCACCTAGTGCAG | 12300 fluorescence intensity (a.u.)
AGACACCAACTCCACCGCATCCTACCAAGCCGCTGCCATGCGGAGTCACCTAGTGCAG | 8190 fluorescence intensity (a.u.)
CTGCCGTCTCGCTTCGCCGACCTCCTCCCCACCAGCCGGCCGGAGTCACCTAGTGCAG | 8900 fluorescence intensity (a.u.)
TCCTCACCCTCTCGCCACGTCTGCTTCGATCCCTTCTCCTCGGAGTCACCTAGTGCAG | 9160 fluorescence intensity (a.u.)
GTGTCGCCAGTGATTGCAGTTTCAGTTCGAAATTTCTCTACGGAGTCACCTAGTGCAG | 9610 fluorescence intensity (a.u.)
CCGCATCCTTCTTGGACTTCTGTTTTGTTGTTGGCCATGGCGGAGTCACCTAGTGCAG | 11100 fluorescence intensity (a.u.)
GGGGATGGGGTGAATTTAAATCTCCCTGCAAAACCATTTTCGGAGTCACCTAGTGCAG | 9550 fluorescence intensity (a.u.)
ACCTATCTTTCTCTATTTTTTATTTTTTTAGCGAAACACACGGAGTCACCTAGTGCAG | 9780 fluorescence intensity (a.u.)
GCAGTACCATTAGCCCACCCACCTACGGCCGCCGGCGCTGCGGAGTCACCTAGTGCAG | 8180 fluorescence intensity (a.u.)
CCTTTCGCCGTGTTCGGTTGTTGCTGGAGCGGATTTGATTCGGAGTCACCTAGTGCAG | 8650 fluorescence intensity (a.u.)
CATCTCGCATTTAATTTCTCCACATATTTTTTCTTAATTACGGAGTCACCTAGTGCAG | 9220 fluorescence intensity (a.u.)
GTGAGGGCTGGGCTACCATGGGTATGGGTATGGGTATGGGCGGAGTCACCTAGTGCAG | 11100 fluorescence intensity (a.u.)
CCCACGTTCCTTTAACTTTGCATCAGAGGAGCTCCGTCCACGGAGTCACCTAGTGCAG | 9240 fluorescence intensity (a.u.)
CCACCACTCCGTCGCCGTGGTCGCGCCCGCGCCTACTCCGCGGAGTCACCTAGTGCAG | 8830 fluorescence intensity (a.u.)
CTCATGTGACATGCCACATAGGAGTTGACTCATTTTCTTTCGGAGTCACCTAGTGCAG | 9800 fluorescence intensity (a.u.)
GACCTCATCCGGCGCCAGATCGCCCCGCCGCCAAACCAATCGGAGTCACCTAGTGCAG | 8360 fluorescence intensity (a.u.)

Some of the entries so far, as labelled records.
GGGGATGGGGTGAATTTAAATCTCCCTGCAAAACCATTTTCGGAGTCACCTAGTGCAG
  binding signal = 9550 fluorescence intensity (a.u.)
ACCTATCTTTCTCTATTTTTTATTTTTTTAGCGAAACACACGGAGTCACCTAGTGCAG
  binding signal = 9780 fluorescence intensity (a.u.)

(further entries)

Sequence | binding signal
TTTCATTGTTTCCGCAGACACGCTTTTCAAACTACTAAACCGGAGTCACCTAGTGCAG | 8080 fluorescence intensity (a.u.)
ACCACTGCCCATCGCCGTCGCTCTTGTCGCCATCGCATCCCGGAGTCACCTAGTGCAG | 11300 fluorescence intensity (a.u.)
TCAGCCATCTCTCCACAGCCTAATCCTTATTTTATTCCTACGGAGTCACCTAGTGCAG | 8720 fluorescence intensity (a.u.)
TCATCGGCATCTTCTTACGCCACCGTCGCCGCATCCACATCGGAGTCACCTAGTGCAG | 13700 fluorescence intensity (a.u.)
TGGCTCAAGCACACTACATATATATCCTTGTTTTTTCAACCGGAGTCACCTAGTGCAG | 8260 fluorescence intensity (a.u.)
GAGAGTTTTTACATTTAACCCATTTTCTACTTTTTATTTCCGGAGTCACCTAGTGCAG | 9880 fluorescence intensity (a.u.)
TTCTTTTACCATACTTCGATGGAAATTGTCTCGCTATTTCCGGAGTCACCTAGTGCAG | 8960 fluorescence intensity (a.u.)
TCAGTATTATCATATATCGGCACCAATGCAAGTTGCTTCCCGGAGTCACCTAGTGCAG | 8310 fluorescence intensity (a.u.)
CATGATTAATACTTTATGCGTGACTTACCTTTTTATTTTTCGGAGTCACCTAGTGCAG | 12300 fluorescence intensity (a.u.)
TTAAGGTATGCTCCATGTTGCTTATTCCTTACTTAAATACCGGAGTCACCTAGTGCAG | 9130 fluorescence intensity (a.u.)
CTTCCGTCAATTCTCGATCGTTTTCCGTCCGCCTTGATCGCGGAGTCACCTAGTGCAG | 10200 fluorescence intensity (a.u.)
GTCTCTTGACCAGTTTTCTCAGTCTATCACGCAAAAATTACGGAGTCACCTAGTGCAG | 9080 fluorescence intensity (a.u.)
ACTTTTATCACTGTCCATCTCCTCTATGCCGTGGACATGACGGAGTCACCTAGTGCAG | 8500 fluorescence intensity (a.u.)
TAGTCGCTGTTCCAGTCTTCGAAATATACACTATATTATCCGGAGTCACCTAGTGCAG | 9980 fluorescence intensity (a.u.)
TGTTTGACACCATTGACTTTTTAGTATGTGTTTGACCATTCGGAGTCACCTAGTGCAG | 13200 fluorescence intensity (a.u.)
AGTTGTCCATTATTCAGTGCCTTGTAACAGGGTAATATTCCGGAGTCACCTAGTGCAG | 10600 fluorescence intensity (a.u.)
GTTCGTATCAGCACCTGCACCTGCACCGAGTTCTGTGATCCGGAGTCACCTAGTGCAG | 8740 fluorescence intensity (a.u.)
TCATCCTCTTGGTAGCCCTCGTTTAGGCGGCGTTGCTGTCCGGAGTCACCTAGTGCAG | 8070 fluorescence intensity (a.u.)
CCCACACACGTACGCGCCATATTGTCATACGATCATCACCCGGAGTCACCTAGTGCAG | 8870 fluorescence intensity (a.u.)
CTTTTTTTAACATGTTTGATCGTCTTATTTAAAAAATTTACGGAGTCACCTAGTGCAG | 9130 fluorescence intensity (a.u.)
CGTATGCTCCTTAGGTGATACTATGTCCCTATTTGCTTCACGGAGTCACCTAGTGCAG | 8180 fluorescence intensity (a.u.)
